# US11685741B2, “Fluorescent probes” (University of Massachusetts, priority 2017, dated 2023)
# Entries after “also recorded” stand apart in the source; their conditions may differ.
# Tests used:
# [1] = Binding studies of sensor with Fe2+ (stoichiometry, affinity, reversibility); details: H2O/THF pH 7.3
# Protocol: The binding stoichiometry between the sensor Rh6GD and Fe^2+ was investigated by absorption and fluorescence titrations first. The sensor, Rh6GD has an absorption band at ˜420 nm (FIG. 26) which is due to the transition from S0 to S1 states (A. Chakraborty, et al., N. Chem. Phys., 2006, 324, 733) of the dimethylaminocinnamaldehyde moiety. […] Similar titrations were performed and were monitored by fluorescence spectroscopy.
# The binding constant was estimated by using the absorption titration results. The equations below were used to calculate the binding constant for 2:1 complexes following a reported procedure (M. Guo, et al., Dalton Trans., 2007, 102, 4951). S+2L ? SL2 (1) The complex apparent binding constant is given by
# [formula] Fc is the fraction of L that formed a complex; the subscripts e and o stand for equilibrium and initial concentrations, respectively. Au, Am, and Ac are the absorbances of solutions of L (before any Fe^2+ was added), during the titration, and at saturation, respectively. The concentration of free Fe^2+ at equilibrium, [S]e, is found with the following identity: [S]e=[S]o−[SL2]e[=S]o−Fc[L]o (4) Finally, the integrated apparent binding constant equation is shown in equation (5).
# Reversibility experiments were carried out by adding the metal chelator EDTA to the Rh6GD-Fe^2+ complex in H2O/THF (pH 7.3, v/v 4:1). […]
# Besides metal-selectivity, the binding constant, which describes the strength of binding between the sensor and metal cations, is also an important factor to be considered in bio-imaging. […] Job's method was applied to study the binding stoichiometry between Rh101D and Fe^2+ and monitored by the absorbance at 585 nm.
# The binding constants were estimated by using the fluorescence titration results (FIG. 38). […]
# The binding stoichiometry and the affinity between the sensor NIRh-Fret and Fe^2+ were investigated by UV-vis absorption titration. […] The binding constant for the formation of this complex was determined to be 2.9×10^6 M^−1 using a reported procedure (C. A. Perez, et al., J. Inorg. Biochem., 2009, 103, 326). […]
# [2] = tested on: primary human fibroblast cells (ws1); assay: Confocal imaging of Fe2+ with Rh6GD in ws1 cells; type: cell-based; details: ws1, MitoTracker and LysoTracker
# Protocol: Human primary fibroblast ws1 cells were grown at 37° C. in a humid atmosphere of 5% CO2 atmosphere in eagle's minimum essential medium (EMEM, ATCC) supplemented with 10% fetal bovine serum (FBS, ATCC). Cultures were divided into 1:2 every 48 h to an approximate cell density of 1.21 million cells/ml and used for experiments after 24 h.
# A Zeiss LSM 710 laser-scanning confocal microscope system was used for cell imaging experiments. 40× oil-immersion objective lens were used to perform all the experiments. For imaging with the Rh6GD sensor, excitation wavelength of the laser was 543 nm and emissions were collected over the range 545-625 nm. For images with MitoTracker Green FM, LysoTracker Deep Red, excitation wavelengths recommended by the manufacturer were 488 nm for MitoTracker, 633 nm for LysoTracker. Emissions were integrated at 492-535 nm (MitoTracker), 650-800 nm (LysoTracker), respectively.
# Ws1 cells, at an approximately density of 1.2 million/ml in complete EMEM medium, were incubated with 100 μM ferrous ammonium sulfate (FAS, Fe (NH4)2(SO4)2 from a 10 mM stock solution) for overnight at 37° C. in a humid atmosphere of 5% CO2 and then the cells were washed with fresh EMEM medium to remove excess Fe^2+. Then cells were incubated with Rh6GD (10 μM, from 500 μM stock solution in DMF) at 37° C. for 30 min and then cells were washed with EMEM media and then imaged. […]
structure (smiles),measurement,setting,value
"CCNc1cc2c(cc1C)C1(c3cc(C)c(NCC)cc3O2)c2ccccc2C(=O)N1/N=C/C=C/c1ccc(N(C)C)cc1 [Rh6GD, 2-(((1E,2E)-3-(4-(dimethylamino)phenyl)allylidene)amino)-3′,6′-bis(ethylamino)-2′,7′-dimethylspiro[isoindoline-1,9′-xanthen]-3-one]",reversibility of binding on addition of EDTA,[1],reversible binding
same,subcellular location of exchangeable Fe^2+ pools detected,[2],"mitochondria and lysosomes; also recorded: mitochondria and endosomes/lysosomes, not in the cytosol"
